PubChem BioAssay AID493246 | Drosophila RNAi Screening Center | 2011

- Assay: 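Genome-wide search for dsRNAs that reduce cell number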 (primary screen)
- Cells: Drosophila Kc and S2R+ cells
- Reagent: long dsRNA against Drosophila genes
- Detection: 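Raw, unnormalised count of remaining cells in each well; per-plate z-scores of cell number underlie the calls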
- Scale: Kc cell number and S2R+ cell number: higher = more cells remaining
- Rule for the call: 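Counted as a hit if cell number falls by a z-score of at least 3 within its plate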
The deposit covers about 21,000 reagents; shown is a random part of those with a known target gene and a result. Over the whole deposit, 429 (2%) are marked active. 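Values are raw and not normalised between plates; calls rest on per-plate z-scores that were not deposited.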 Unmarked entries are inactive. Reagents against one gene are numbered here. A plus sign joins genes that one reagent is predicted to hit. The record does not give: the amount of reagent, the time to read-out.

Kc cell number, rep 1 | Kc cell number, rep 2 | S2R+ cell number, rep 1 | S2R+ cell number, rep 2 | predicted target | dsRNA no.
1.44e6 (active) | 1.52e6 | 8.29e5 | 9.03e5 | alphaTub84B | 1
1.53e6 | 1.61e6 | 1.27e6 | 2.82e5 | CG10431 | 1
1.22e6 | 1.28e6 | 1.20e6 | 1.17e6 | smg | 1
1.64e6 | 1.68e6 | 1.38e6 | 1.53e6 | PGRP-SC1a | 1
1.43e6 | 1.65e6 | 1.26e6 | 1.30e6 | CG31454 | 1
1.21e6 | 1.24e6 | 1.17e6 | 1.29e6 | CG14362 | 1
1.41e6 | 1.32e6 | 9.94e5 | 1.23e6 | galla-1 | 1
1.64e6 | 1.65e6 | 1.35e6 | 1.50e6 | CG14752 | 1
1.77e6 | 1.80e6 | 1.09e6 | 1.26e6 | Vps13B | 1
1.50e6 | 1.54e6 | 1.29e6 | 1.44e6 | Dpy-30L1 | 1
9.54e5 | 9.88e5 | 8.79e5 | 1.06e6 | Fad2 | 1
1.30e6 | 1.41e6 | 1.38e6 | 1.42e6 | OS9 + Hf | 1
4.88e5 | – | 8.83e5 | – | CG2258 | 1
1.78e6 | 1.90e6 | 1.39e6 | 5.84e5 | Oatp58Da | 1
1.59e6 | 1.70e6 | 1.17e6 | 1.27e6 | CG10116 | 1
1.66e6 | 1.62e6 | 1.17e6 | 1.25e6 | CG12607 | 1
1.31e6 | 1.34e6 | 1.23e6 | 1.15e6 | Duba | 1
1.34e6 | 1.37e6 | 8.64e5 | 9.74e5 | CG9663 | 1
1.82e6 | 1.69e6 | 1.09e6 | 1.28e6 | CG9570 | 1
1.69e6 | 1.71e6 | 1.18e6 | 1.30e6 | Shawl | 1
1.64e6 | 1.68e6 | 1.18e6 | 1.31e6 | Shawl | 2
1.43e6 | 1.46e6 | 1.25e6 | 1.30e6 | Vps51 | 1
1.52e6 | 1.64e6 | 1.28e6 | 1.37e6 | CG31462 (retired record) | 1
1.66e6 | 1.60e6 | 1.35e6 | 1.51e6 | Atg10 + CG12822 | 1
1.65e6 | 1.66e6 | 1.23e6 | 1.41e6 | CG17224 | 1
1.65e6 | 1.65e6 | 1.37e6 | 1.38e6 | Tengl4 | 1
1.53e6 | 1.52e6 | 1.02e6 | 1.28e6 | CG13484 | 1
1.33e6 | 1.34e6 | 1.14e6 | 1.18e6 | cry | 1
1.51e6 | 1.50e6 | 1.31e6 | 1.38e6 | Ipo9 | 1
1.50e6 | 1.57e6 | 1.16e6 | 1.29e6 | Nach | 1
1.54e6 | 1.61e6 | 1.14e6 | 1.24e6 | CG15034 | 1
1.21e6 | 1.34e6 | 1.17e6 | 1.29e6 | Trs33 | 1
1.58e6 | 1.63e6 | 1.01e6 | 1.19e6 | CG4629 | 1
1.50e6 | 1.53e6 | 1.14e6 | 1.26e6 | CG5902 | 1
1.40e6 | 1.45e6 | 1.27e6 | 1.32e6 | CG17698 | 1
1.61e6 | 1.61e6 | 9.51e5 | 1.10e6 | Hex-A | 1
1.48e6 | 1.55e6 | 1.18e6 | 1.20e6 | Stat92E | 1
1.55e6 | 1.53e6 | 1.15e6 | 1.31e6 | CG14212 | 1
1.51e6 | 1.50e6 | 1.09e6 | 1.24e6 | CG9962 | 1
1.60e6 | 1.68e6 | 1.17e6 | 1.29e6 | CG15029 (retired record) | 1
1.32e6 | 1.36e6 | 9.19e5 | 1.01e6 | TBC1d7 + mRpS24 | 1
1.77e6 | 1.88e6 | 1.43e6 | 1.61e6 | Spn42Dd | 1
1.51e6 | 1.54e6 | 1.14e6 | 1.18e6 | upd1 | 1
1.58e6 | 1.50e6 | 9.87e5 | 1.10e6 | CG4582 | 1
1.34e6 | 1.47e6 | 1.11e6 | 1.25e6 | EloC | 1
1.02e6 (active) | 8.10e5 | 5.77e5 | 7.06e5 | eIF4A | 1
1.55e6 | 1.52e6 | 1.07e6 | 1.16e6 | fzr | 1
1.71e6 | 1.75e6 | 1.23e6 | 1.39e6 | Dlish | 1
1.43e6 | 1.45e6 | 9.57e5 | 1.06e6 | Fum2 | 1
1.67e6 | 1.64e6 | 1.12e6 | 1.27e6 | CG15425 | 1
6.16e5 | – | 9.85e5 | – | Fatp2 | 1
1.61e6 | 1.65e6 | 1.33e6 | 1.45e6 | Fatp2 | 2
1.63e6 | 1.70e6 | 1.39e6 | 1.43e6 | Fatp2 | 3
1.58e6 | 1.58e6 | 1.11e6 | 1.27e6 | FarO | 1
1.69e6 | 1.60e6 | 1.03e6 | 1.16e6 | Psf3 | 1
1.58e6 | 1.68e6 | 1.10e6 | 1.17e6 | CG7987 | 1
1.38e6 | 1.38e6 | 1.28e6 | 1.32e6 | wek | 1
1.56e6 | 1.57e6 | 1.17e6 | 1.36e6 | CG13096 | 1
3.94e5 (active) | – | 6.29e5 | – | Gyg | 1
1.54e6 | 1.53e6 | 1.27e6 | 3.00e5 | Gyg | 2

Sorted by “S2R+ cell number, rep 1” (lowest first): 7 of the entries above
Kc cell number, rep 1 | Kc cell number, rep 2 | S2R+ cell number, rep 1 | S2R+ cell number, rep 2 | predicted target | dsRNA no.
9.54e5 | 9.88e5 | 8.79e5 | 1.06e6 | Fad2 | 1
4.88e5 | – | 8.83e5 | – | CG2258 | 1
1.59e6 | 1.70e6 | 1.17e6 | 1.27e6 | CG10116 | 1
1.66e6 | 1.62e6 | 1.17e6 | 1.25e6 | CG12607 | 1
1.31e6 | 1.34e6 | 1.23e6 | 1.15e6 | Duba | 1
1.30e6 | 1.41e6 | 1.38e6 | 1.42e6 | OS9 + Hf | 1
1.78e6 | 1.90e6 | 1.39e6 | 5.84e5 | Oatp58Da | 1
